Results are given in words; binding and its absence hold for the method and conditions named. In cells and extracts the contact can be indirect. Some entries that bind do so weakly or less than the wild type. Sequences can lack the tags named with a protein.
Key:
[1] = target: HA-tagged c-Jun N-terminal Kinase 1 (JNK1) (UniProt P45983); assay: condition: only cells treated with 0.5 M sorbitol for 30 min (JNK activated); co-IP; as a1, but cells treated with 0.5 M sorbitol for 30 min (osmotic shock, JNK activated) before lysis; anti-HA immunoprecipitate blotted with anti-Flag
[2] = target: HA-tagged c-Jun N-terminal Kinase 1 (JNK1) (UniProt P45983); assay: co-IP; HEK-293 cells co-transfected with HA-JNK and Flag-MS1, left untreated; lysate immunoprecipitated with anti-HA and Protein-A Sepharose, 3 h at 4°C, washed three times with lysis buffer (137 mM NaCl, 1% Triton X-100, pH 7.4); blotted with anti-Flag

The chains behind the UniProt entries cited, without tags or fusion partners.
UniProt P45983: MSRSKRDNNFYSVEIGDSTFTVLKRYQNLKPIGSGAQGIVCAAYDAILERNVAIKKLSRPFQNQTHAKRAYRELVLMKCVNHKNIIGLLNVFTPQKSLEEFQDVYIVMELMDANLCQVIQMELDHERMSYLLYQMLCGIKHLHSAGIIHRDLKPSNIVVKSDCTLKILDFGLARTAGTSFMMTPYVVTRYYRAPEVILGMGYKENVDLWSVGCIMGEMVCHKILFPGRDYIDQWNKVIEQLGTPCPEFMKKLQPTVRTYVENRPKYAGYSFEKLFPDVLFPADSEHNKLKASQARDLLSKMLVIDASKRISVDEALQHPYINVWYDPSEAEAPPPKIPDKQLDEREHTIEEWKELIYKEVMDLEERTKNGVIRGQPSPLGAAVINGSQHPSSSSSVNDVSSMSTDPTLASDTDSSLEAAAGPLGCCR

binding [1]: no binding
binding [2]: binds
B1: Flag-tagged Myocyte Stress Protein 1 (MS1) (protein, UniProt Q8K4K7 1-375)
chain: MAPGETEREAGPAKSALQKVRRATLVINLARGWQQWANENSTRQAQEPAGWLPGATQDLPHTPKEPGPRQHAPKPPSPKPDGDREGRGSEEATEVSHIKRKEVTRTVVSKAYERGGDVNYLSHRYEHDGGVSEAVQPDNDIDRILLSHDSPTRRRKCTNLVSELTKGWKVMEQEEPKWKSDSIDTEDSGYGGDMEERPEQDVAQVAAARIKRPLHSQANRYSETLNCKAHRKYSQVDNLKGRWQQWADEHIQSQKLNPFSDEFDYDLAMSTRLHKGDEGYGRPKEGSKTAERAKRAEEHIYREIMELCFVIRTMARHRRDGKIQVTFGELFDRYVRISDKVVGILMRARKHGLVHFEGEMLWQGKDDHVVITLLE
